Measured values reported in PubChem BioAssay AID819 (Columbia University Molecular Screening Center, 2007).
Among all 94,000 compounds or so, about 280 (0.3%) were called active. The inconclusive results got no clear call from the source; some entries with a clear call stand among them for comparison.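 The calls were made as follows: active = activation above 40%, about the mean plus 3 SD, also judged a hit on visual image review; inconclusive = activation above 40% but not a hit on visual review; inactive = activation not above 40% and no visual hit.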

experiment: enhancers of NFkB p65 translocation in HUVEC – imaging, IL-1B stimulus, high-content imaging, primary screen (AID 819); details: HUVEC IL-1B NFkB p65 nuclear translocation imaging; at 2 µM; hits give high values;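 also: percent activation is computed from the nuclear over cytoplasmic p65 intensity ratio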

SMILES | activation
Cc1oc(C(=O)O)cc1COc1ccc2c(C)cc(=O)oc2c1 | inconclusive: 43%
Cc1ccccc1NC(=O)c1sc2nc[nH]c(=O)c2c1C | inconclusive: 57%
CCN1CNC(=S)N(c2cc(C)ccc2C)C1 | inactive: 7.39%
Cc1ccc(-c2noc(CCCc3ccccc3)n2)cc1 | inconclusive: 43.1%
CC1C(=NO)C(C)C(c2ccc(N(C)C)cc2)NC1c1ccc(N(C)C)cc1 (centres undefined) | inactive: 6.4%
CC1(C)CC(=O)C=C(NCc2ccncc2)C1 | inconclusive: 57.4%
CCn1nc(C(=O)OCC(=O)c2c[nH]c3ccccc23)c2ccccc2c1=O | inactive: 27.9%
O=C1C2C(c3ccccc3)C=CC(c3ccccc3)C2C(=O)N1CCO (centres undefined) | inconclusive: 48.6%
CN(C)c1nc(OCCNC(=O)Nc2ccccc2)nc(N(C)C)n1 | inconclusive: 41%
COc1cc2[nH]c(=O)n(Cc3ccc(C(=O)NC4CCCC4)cc3)c(=O)c2cc1OC | active: 46.2%
COCn1c(-c2ccc(OC)cc2)nc2ccccc21 | inconclusive: 48.1%
CCOc1cc2[nH]c(=O)n(CCC(=O)N3CCN(c4ccccc4OC)CC3)c(=O)c2cc1OCC | inactive: 28%
CNC(=O)CN(C)S(=O)(=O)c1ccc(F)cc1 | active: 44.3%
Clc1ccc(NC2=NCCC2)cc1Cl | inconclusive: 46.1%
CCOc1ccccc1NC(=O)c1ccccc1-c1nc(-c2ccccc2OC)no1 | inactive: 7.82%
COc1ccc(Cl)cc1NC(=O)CN1C(=O)CSC1=O | inconclusive: 58.4%
CCOc1ccc(C(=O)NC(=S)N(Cc2ccccc2)Cc2ccccc2)cc1 | inactive: 12.3%
CCn1cc(C(=O)Nc2ccc(-n3cnnn3)c(OC)c2)c(=O)c2ccc(C)nc21 | inconclusive: 54.9%
CC1Cc2ccccc2N1C(=O)Cn1nc(C(=O)O)c2ccccc2c1=O (centres undefined) | inconclusive: 41.1%
CCCCCn1nc(-c2ccccc2)c2nc3ccccc3nc21 | inactive: -14.8%

SMILES | activation
Cc1ccc2[nH]c(=O)c(CN(CC3CCCO3)C(=O)c3ccncc3)cc2c1 (centres undefined) | inconclusive: 41.2%
Clc1ccc(OCc2nn3c(-c4ccncc4)nnc3s2)cc1 | active: 45.5%
CC(=O)Nc1ccc(S(=O)(=O)Nc2ccc(N3CCOCC3)cc2)cc1 | inconclusive: 58.5%
CC(=O)c1cccc(NC(=O)c2ccco2)c1 | inconclusive: 51.3%
CCOC(=O)C1=C(C)NC(C)=C(C(=O)OCC)C1C(=O)OCC(=O)N1CCCCC1CC (centres undefined) | inconclusive: 41.5%
Cc1onc(C(=O)N2CCC(C(N)=O)CC2)c1-c1ccccc1Cl | inconclusive: 58.3%
Cn1c(NCCCN2CCOCC2)nc2c1c(=O)n(Cc1ccc(Cl)c(Cl)c1)c(=O)n2C | inconclusive: 59.9%
CC1(C)C2CCC1(C)C(NC(=O)CCN1CCCCC1)C2 (centres undefined) | inconclusive: 50.7%
CC(Sc1nc(-c2ccccc2)cc(C(F)(F)F)n1)C(=O)N1CCCC1 (centres undefined) | inconclusive: 54%
COc1ccccc1N1CCN(CCCC(=O)c2ccc(F)cc2)CC1 | inconclusive: 42%
CCOc1ccc(C(=O)NCC2CCCO2)cc1 (centres undefined) | active: 56%
O=C1CC(c2cccc(Br)c2)C2=C(CCCC2=O)N1 (centres undefined) | inconclusive: 63.1%
CC1CCc2c(sc(NC(=O)C(=O)NCc3ccco3)c2C#N)C1 (centres undefined) | active: 42.1%
O=C(CN(C1CCCCC1)S(=O)(=O)c1ccc(F)cc1)Nc1ccc2c(c1)OCO2 | inactive: 13.7%
CCOc1cc(N2CCOCC2)c(OCC)cc1NC(=O)Cc1cccc2ccccc12 | active: 62.8%
CN1CCN(Cc2cc(=O)oc3cc4c(cc23)CCC4)CC1 | active: 41.1%
O=C(CN1CCN(S(=O)(=O)c2ccc(Cl)cc2)CC1)Nc1ccc(F)cc1F | inconclusive: 59.5%
COCc1cc(C)n(CC(=O)Nc2ccc(Cl)cc2Cl)c(=O)c1C#N | active: 40.7%
CNC(=S)N1CCN(c2ccccc2OC)CC1 | inconclusive: 45%
CCCCN(C(=O)CCC(=O)Nc1cc(C)on1)C(C(=O)NC(C)(C)C)c1cccc(OC)c1OC (centres undefined) | inconclusive: 45.4%

Taken from above.
activation, `O=C(CN1CCN(S(=O)(=O)c2ccc(Cl)cc2)CC1)Nc1ccc(F)cc1F` is entered as inconclusive: 59.5%
activation, `CCOc1cc(N2CCOCC2)c(OCC)cc1NC(=O)Cc1cccc2ccccc12` is entered as active: 62.8%
activation, `CC(=O)Nc1ccc(S(=O)(=O)Nc2ccc(N3CCOCC3)cc2)cc1` is entered as inconclusive: 58.5%
activation, `O=C(CN(C1CCCCC1)S(=O)(=O)c1ccc(F)cc1)Nc1ccc2c(c1)OCO2` is entered as inactive: 13.7%
activation, `O=C1CC(c2cccc(Br)c2)C2=C(CCCC2=O)N1` (centres undefined) is entered as inconclusive: 63.1%

(cont.)

SMILES | activation
O=C(CN(CCO)c1ccccc1)NC12CC3CC(CC(C3)C1)C2 | inconclusive: 43.6%
O=C(NCc1ccco1)C1CC(=O)N(CCc2ccccc2)C1 (centres undefined) | inconclusive: 44.4%
Cc1ccc(S(=O)(=O)c2nc(S(C)(=O)=O)sc2NCC2CCCO2)cc1 (centres undefined) | inactive: 34.8%
CCCCCc1ccc(-c2ccc(=O)[nH]n2)cc1 | inconclusive: 49.2%
COCc1cc(Sc2c(Cl)cccc2Cl)nc(-c2ccccc2)n1 | inactive: 6.89%
CC(=O)N1CCc2cc(S(=O)(=O)NCCC(=O)N3CCN(Cc4ccccc4)CC3)ccc21 | inconclusive: 41.8%
CCn1c(SCC(=O)Nc2ccc3c(c2)OCCO3)nnc1-c1ccccn1 | inconclusive: 40.3%
COC(=O)c1ccc(Oc2nc(Nc3ccc(C)c(C)c3)nc(N(C)C)n2)cc1 | inconclusive: 48.9%
COc1ccc(NC(=O)c2ccccc2Cl)cc1NC(=O)CN1CCOCC1 | inconclusive: 57.3%
COC(=O)c1c(C)[nH]c(C)c1-c1ccccc1 | inconclusive: 44.4%
O=C(COc1ccc(Br)cc1)N1CCC(c2ccccc2)C1 (centres undefined) | inconclusive: 51%
CCn1cc(/C=C(/C#N)S(=O)(=O)c2ccccc2)cn1 | inactive: -4.5%
O=C(CN1CCN(c2ccccc2)CC1)Nc1cccc(C(F)(F)F)c1 | inconclusive: 40.8%
Cc1ccc(S(=O)(=O)Cn2nnnc2C(C(C)C)N2CCN(C(=O)c3ccco3)CC2)cc1 (centres undefined) | active: 43.8%
COc1ccc(C(=O)c2c(C)oc3cc([N+](=O)[O-])c(O)c([N+](=O)[O-])c23)cc1 | inconclusive: 48.7%
Cc1ccc(-n2ncc3c(NCc4ccc5c(c4)OCO5)ncnc32)c(C)c1 | inconclusive: 54.7%
CCC(c1nnnn1Cc1ccco1)N1CCN(C(=O)c2ccco2)CC1 (centres undefined) | inactive: 4.62%
CC(C)NC(=O)c1ccc2c(c1)nnn2C | inconclusive: 47.4%
O=S(=O)(c1ccccc1)N(CC(O)Cn1c2ccccc2c2ccccc21)c1ccccc1 (centres undefined) | inconclusive: 90.2%
